Values of other authors in patent publication US12440570B2, “Conjugation of MCR1 ligand with cytotoxic drugs for treating skin cancer” (ARIZONA BOARD OF REGENTS ON BEHALF OF THE UNIVERSITY OF …, priority 2019, dated 2025).
At least one structure is not confirmed: it was looked up by name or label, or the drawing left a doubt.

Test system: melanoma tumors
Conditions: mice, after 56 days; cited from earlier work

CCCS(=O)(=O)Nc1ccc(F)c(C(=O)c2c[nH]c3ncc(-c4ccc(Cl)cc4)cc23)c1F [vemurafenib]
melanoma tumors that became resistant to treatment: 20%
